# Measurements published in article doi:10.1101/2024.10.08.616723.
# Protein sequences, listed by entry. Tags and fused reporters are not part of them.
# UniProt Q96LD4: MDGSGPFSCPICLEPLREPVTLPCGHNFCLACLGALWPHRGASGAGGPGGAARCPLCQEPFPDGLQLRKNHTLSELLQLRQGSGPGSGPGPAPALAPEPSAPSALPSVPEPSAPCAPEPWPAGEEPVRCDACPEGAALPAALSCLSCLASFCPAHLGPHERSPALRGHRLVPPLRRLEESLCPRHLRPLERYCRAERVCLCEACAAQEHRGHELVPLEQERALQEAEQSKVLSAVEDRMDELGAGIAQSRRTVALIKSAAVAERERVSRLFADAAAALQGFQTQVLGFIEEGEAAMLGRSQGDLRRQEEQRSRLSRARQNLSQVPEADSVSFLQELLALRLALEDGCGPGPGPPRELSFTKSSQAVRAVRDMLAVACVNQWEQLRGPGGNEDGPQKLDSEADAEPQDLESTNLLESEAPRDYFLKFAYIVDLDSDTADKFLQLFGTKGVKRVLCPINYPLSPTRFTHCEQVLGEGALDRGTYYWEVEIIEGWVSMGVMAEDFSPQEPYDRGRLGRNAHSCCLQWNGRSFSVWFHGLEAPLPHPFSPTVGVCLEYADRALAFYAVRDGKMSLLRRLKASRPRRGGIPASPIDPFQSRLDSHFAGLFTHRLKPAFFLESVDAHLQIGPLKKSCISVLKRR
# UniProt Q14145: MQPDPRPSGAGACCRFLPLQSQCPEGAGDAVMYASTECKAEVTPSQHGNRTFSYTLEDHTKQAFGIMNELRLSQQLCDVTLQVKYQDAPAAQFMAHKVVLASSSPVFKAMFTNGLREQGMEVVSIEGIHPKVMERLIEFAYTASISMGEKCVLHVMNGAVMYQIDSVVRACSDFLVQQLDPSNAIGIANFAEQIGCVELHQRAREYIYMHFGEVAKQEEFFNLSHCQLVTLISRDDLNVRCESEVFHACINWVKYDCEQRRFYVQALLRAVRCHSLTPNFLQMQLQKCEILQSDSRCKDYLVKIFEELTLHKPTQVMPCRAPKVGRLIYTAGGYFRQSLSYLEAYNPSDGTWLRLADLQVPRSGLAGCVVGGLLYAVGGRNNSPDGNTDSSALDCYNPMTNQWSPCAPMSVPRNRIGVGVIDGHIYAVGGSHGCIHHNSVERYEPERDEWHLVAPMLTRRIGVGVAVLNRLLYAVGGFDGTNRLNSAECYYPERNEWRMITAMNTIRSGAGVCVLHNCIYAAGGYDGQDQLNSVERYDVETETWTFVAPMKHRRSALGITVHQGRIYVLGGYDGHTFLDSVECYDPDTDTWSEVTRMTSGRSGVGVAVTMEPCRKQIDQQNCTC
# These are yes or no findings as the source states them, for the method shown. In cells and extracts the contact can be indirect. Some entries that bind do so weakly or less than the wild type.
# Target: TRIM47-myc-Flag (human TRIM47, Myc-DDK-tagged) (human) (UniProt Q96LD4)
# Assay: co-IP
substance,measurement,value
KEAP1-Flag (from UniProt Q14145 1-624),binding,binds
